Laboratory results reported in PubChem BioAssay AID248 (DTP/NCI, 2004).
The list does not hold the whole screen: it is rich in T/C values a quarter to a half above the control, in often repeated tests (any T/C) and in doses without a T/C. Further doses and runs are listed elsewhere. T/C gives the treated animals as a percentage of the vehicle group. Some entries give survivors of the animals treated and no T/C: the source files T/C as zero there, which appears to mark a toxic dose or a test without result, not a measured value. Some survivor counts are full or nearly so, which does not show that the dose was tolerated: survival well below the control is almost never listed, so the zero probably covers shortened survival too. Survivors were counted at the toxicity check, usually on the fifth day, unless a day is given; later deaths do not show. Schedules are NCI's codes, read here as Q, the interval in days (D) or hours (H), X, the number of doses. Some schedule codes hold Z or #, which are not explained here. Some molecules as drawn cover several salts, stereoisomers or complexes of the source; a dose is that of the sample tested. Marks such as (2×) count equal records among those shown. Some entries were tested several times; the values are given in rising order. Where survival is the endpoint, this PubChem deposit counts one and a half times the control or more as active, and values a quarter to a half above the control carry no call in these data; other NCI protocols may use other cut-offs. Some T/C values carry the count of animals alive at the toxicity check (mostly the fifth day); without a count, all were alive then.

Test system: L1210 leukemia ip in BDF1 mice, survival T/C
Assay: NCI In Vivo Anticancer Drug Screen. Data for tumor model L1210 Leukemia (intraperitoneal) in B6D2F1 (BDF1) mice
Conditions: T/C endpoint: mean survival time, higher T/C = longer survival
[1] = dose: 400.0 mg/kg/injection, schedule: Q04DX003 (ip), vehicle: saline with Tween-80
[2] = dose: 400.0 mg/kg/injection, schedule: Q01DX001 (ip), vehicle: saline
[3] = dose: 200.0 mg/kg/injection, schedule: Q01DX001 (ip), vehicle: saline
[4] = dose: 200.0 mg/kg/injection, schedule: Q01DX009 (ip), vehicle: Klucel (hydroxypropylcellulose) (HPC)

Q: With `N=C(N)N/N=C(\C=N\NC(=N)N)c1ccc(Oc2ccc(C(/C=N/NC(=N)N)=N\NC(=N)N)cc2)cc1` as the compound, how does the survivor count (dose: 15.0 mg/kg/injection, schedule: Q01DX Z (ip), vehicle: saline) read?
A: 3 of 6

Q: And the survivor count (dose: 30.0 mg/kg/injection, schedule: Q01DX Z (ip), vehicle: saline)?
A: 0 of 6

Q: And the survivor count (dose: 60.0 mg/kg/injection, schedule: Q01DX Z (ip), vehicle: saline)?
A: 0 of 6

Q: What about the survivor count (dose: 120.0 mg/kg/injection, schedule: Q01DX Z (ip), vehicle: saline) of the same compound?
A: 0 of 6

Q: With `O=C(/C=C/c1ccccc1)N1CC2CCC(CC2)C1` as the compound, how does the survivor count [1] read?
A: 2 of 6

Q: Which survivor count (dose: 100.0 mg/kg/injection, schedule: Q01DX001 (ip), vehicle: steroid suspending solution) does the source give for `S=C(NCc1ccccc1)[S][Sn]([c]1ccccc1)([c]1ccccc1)[c]1ccccc1` here?
A: 1 of 6

Q: And the survivor count (dose: 200.0 mg/kg/injection, schedule: Q01DX001 (ip), vehicle: steroid suspending solution)?
A: 0 of 6

Q: And the survivor count (dose: 400.0 mg/kg/injection, schedule: Q01DX001 (ip), vehicle: steroid suspending solution)?
A: 0 of 6

Q: With `CSc1ccc(NC(=O)C(Cl)Cl)cc1` as the compound, how does the survivor count (dose: 200.0 mg/kg/injection, schedule: Q04DX002 (ip), vehicle: Klucel (hydroxypropylcellulose) (HPC)) read?
A: 3 of 3

Q: Which survivor count [2] does the source give for `C[N+](C)(C)CCC[N+]1(C)CCC2(CCCC(C(F)(F)F)C2)CC1` (configuration not stated) here?
A: 0 of 4

Q: For `C1CCN(CCC2CCCCN2)CC1` (configuration not stated), which survivor count (dose: 200.0 mg/kg/injection, schedule: Q04DX003 (ip), vehicle: saline) is on record?
A: 3 of 6

Q: And the survivor count (dose: 400.0 mg/kg/injection, schedule: Q04DX003 (ip), vehicle: saline)?
A: 0 of 6

Q: How did the survivor count (dose: 300.0 mg/kg/injection, schedule: Q01DX001 (ip), vehicle: other) turn out when `NCC(c1ccccc1)C(Cc1ccccc1)[N+](=O)[O-]` (configuration not stated) was run?
A: 1 of 6

Q: `COC(=O)C1=CO[C@@H](C)[C@@H]2Cn3ccc4c5ccccc5nc-4c3C[C@H]12` was tested. Which survivor count [3] did it give?
A: 4 of 4

Q: With `Cc1cccc(C)c1NC(N)=NC(C)C` as the compound, how does the T/C (dose: 50.0 mg/kg/injection, schedule: Q01DX001 (ip), vehicle: saline) read?
A: 127 % of control

Q: What about the T/C (dose: 100.0 mg/kg/injection, schedule: Q01DX001 (ip), vehicle: saline) of the same compound?
A: 146 % of control

Q: And the T/C [3]?
A: 138 % of control

Q: What does the source list for `[N-]=[N+]=NCc1nnc2ncnc(N)c2n1`?
A: survivor count (dose: 50.0 mg/kg/injection, schedule: Q01DX009 (ip), vehicle: saline with Tween-80): 1 of 6; survivor count (dose: 100.0 mg/kg/injection, schedule: Q01DX009 (ip), vehicle: saline with Tween-80): 0 of 6; survivor count (dose: 200.0 mg/kg/injection, schedule: Q01DX001 (ip), vehicle: saline with Tween-80): 2 of 6; survivor count (dose: 400.0 mg/kg/injection, schedule: Q01DX001 (ip), vehicle: saline with Tween-80): 0 of 6

Q: Which survivor count (dose: 400.0 mg/kg/injection, schedule: Q01DX009 (ip), vehicle: other) does the source give for `COc1ccc2c(=O)cc(-c3ccccc3)[nH]c2c1` here?
A: 5 of 6

Q: For `Nc1ccccc1SC1CC(=O)N(c2ccc(Br)cc2Cl)C1=O` (configuration not stated), which survivor count (dose: 100.0 mg/kg/injection, schedule: Q01DX009 (ip), vehicle: Klucel (hydroxypropylcellulose) (HPC)) is on record?
A: 3 of 6

Q: For `Cc1cc([N+](=O)[O-])ccc1O`, which survivor count [2] is on record?
A: 0 of 4

Q: With `CC(C)(C)NC(=O)NCCc1ccccc1` as the compound, how does the survivor count (dose: 100.0 mg/kg/injection, schedule: Q04DX003 (ip), vehicle: Klucel (hydroxypropylcellulose) (HPC)) read?
A: 6 of 6

Q: What about the survivor count [4] of the same compound?
A: 6 of 6

Q: Which results are given for `CC(O)C#CC#CC(C)O` (configuration not stated)?
A: survivor count (dose: 75.0 mg/kg/injection, schedule: Q01DX009 (ip), vehicle: saline): 2 of 3; survivor count (dose: 115.0 mg/kg/injection, schedule: Q01DX009 (ip), vehicle: saline): 0 of 3; survivor count (dose: 170.0 mg/kg/injection, schedule: Q01DX009 (ip), vehicle: saline): 0 of 3

Q: For `Cc1cccc2cc3cccc(C)[n+]3cc12`, which survivor count (dose: 40.0 mg/kg/injection, schedule: Q01DX001 (ip), vehicle: other) is on record?
A: 1 of 6

Q: What about the survivor count (dose: 80.0 mg/kg/injection, schedule: Q01DX001 (ip), vehicle: other) of the same compound?
A: 0 of 6

Q: What about the survivor count (dose: 100.0 mg/kg/injection, schedule: Q01DX001 (ip), vehicle: other) of the same compound?
A: 0 of 6

Q: And the survivor count (dose: 200.0 mg/kg/injection, schedule: Q01DX001 (ip), vehicle: other)?
A: 0 of 6

Q: And the survivor count (dose: 400.0 mg/kg/injection, schedule: Q01DX001 (ip), vehicle: other)?
A: 0 of 6

Q: Which survivor count (dose: 400.0 mg/kg/injection, schedule: Q01DX009 (ip), vehicle: saline) does the source give for `O=c1c(O)c(-c2ccc(O)c(O)c2)oc2cc(O)cc(O)c12` here?
A: 1 of 6

Q: What about the survivor count (dose: 800.0 mg/kg/injection, schedule: Q01DX009 (ip), vehicle: saline) of the same compound?
A: 4 of 6

Q: And the survivor count (dose: 1600.0 mg/kg/injection, schedule: Q01DX009 (ip), vehicle: saline)?
A: 0 of 6

Q: With `COC(=O)[C@@]12OC[C@]34[C@H]([C@@H](O)[C@@H]1O)[C@@]1(C)CC(=O)C(O)=C(C)[C@@H]1C[C@H]3OC(=O)[C@H](OC(=O)/C=C(\C)C(C)C)[C@@H]24` as the compound, how does the T/C (dose: 0.12 mg/kg/injection, schedule: Q01DX009 (ip), vehicle: saline with Tween-80) read?
A: 127 % of control

Q: And the T/C (dose: 0.25 mg/kg/injection, schedule: Q01DX009 (ip), vehicle: other, evaluated on day 30)?
A: 129 % of control [9 of 10 alive]

Q: And the T/C (dose: 0.25 mg/kg/injection, schedule: Q01DX009 (ip), vehicle: other, evaluated on day 60)?
A: 125 % of control

Q: And the T/C (dose: 0.25 mg/kg/injection, schedule: Q01DX009 (ip), vehicle: saline with Tween-80)?
A: 128 % of control

Q: What about the survivor count (dose: 0.25 mg/kg/injection, schedule: Q03HX024 (ip), vehicle: saline with Tween-80) of the same compound?
A: 2 of 10

Q: And the T/C (dose: 0.5 mg/kg/injection, schedule: Q01DX009 (ip), vehicle: other)?
A: 128 % of control

Q: And the T/C (dose: 0.5 mg/kg/injection, schedule: Q01DX009 (ip), vehicle: saline with Tween-80)?
A: 135 % of control

Q: And the survivor count (dose: 0.5 mg/kg/injection, schedule: Q03HX024 (ip), vehicle: other)?
A: 0 of 10

Q: What about the survivor count (dose: 0.5 mg/kg/injection, schedule: Q03HX024 (ip), vehicle: saline with Tween-80) of the same compound?
A: 3 of 10

Q: What about the T/C (dose: 1.0 mg/kg/injection, schedule: Q01DX009 (ip), vehicle: other) of the same compound?
A: 127 % of control

Q: And the T/C (dose: 1.0 mg/kg/injection, schedule: Q01DX009 (ip), vehicle: saline with Tween-80, evaluated on day 30)?
A: 141 % of control

Q: And the T/C (dose: 1.0 mg/kg/injection, schedule: Q01DX009 (ip), vehicle: saline with Tween-80, evaluated on day 60)?
A: 132 % of control [9 of 10 alive]

Q: What about the survivor count (dose: 2.0 mg/kg/injection, schedule: Q01DX009 (ip), vehicle: other) of the same compound?
A: 5 of 10

Q: What about the T/C (dose: 2.0 mg/kg/injection, schedule: Q01DX009 (ip), vehicle: saline with Tween-80) of the same compound?
A: 128 % of control [9 of 10 alive]

Q: And the survivor count (dose: 4000.0 micrograms/kg/injection, schedule: Q01DX009 (ip), vehicle: saline + alcohol)?
A: 4 of 6

Q: For `NNS(=O)(=O)c1ccccc1`, which survivor count (dose: 200.0 mg/kg/injection, schedule: Q01DX001 (ip), vehicle: carboxymethylcellulose (CMC)) is on record?
A: 0 of 4

Q: And the survivor count (dose: 400.0 mg/kg/injection, schedule: Q01DX001 (ip), vehicle: carboxymethylcellulose (CMC))?
A: 0 of 4

Q: Which survivor count (dose: 300.0 mg/kg/injection, schedule: Q01DX009 (ip), vehicle: Klucel (hydroxypropylcellulose) (HPC)) does the source give for `O=S(=O)(Nc1cc(Cl)c(NS(=O)(=O)c2ccccc2)c2ccccc12)c1ccccc1` here?
A: 6 of 6

Q: What does the source list for `CCc1cc2c(cc1C(=O)CBr)C(C)(C)CCC2(C)C`?
A: survivor count (dose: 25.0 mg/kg/injection, schedule: Q01DX009 (ip), vehicle: saline with Tween-80): 3 of 6; survivor count (dose: 50.0 mg/kg/injection, schedule: Q04DX003 (ip), vehicle: saline): 1 of 6

Q: How did the survivor count [1] turn out when `Cc1ccc2cccc([N+](=O)[O-])c2n1` was run?
A: 0 of 6

Q: Which survivor count (dose: 250.0 mg/kg/injection, schedule: Q01DX Z (ip), vehicle: methylcellulose (MC)) does the source give for `CCCCCCCCCCCCCCCCCCNC(=S)N/N=C/c1ccccc1[N+](=O)[O-]` here?
A: 2 of 6

Q: For `c1cc[n+](Cc2nc3ccccc3[nH]2)cc1`, which survivor count [3] is on record?
A: 1 of 6 and 3 of 6

Q: What about the survivor count [2] of the same compound?
A: 0 of 6 (2×)

Q: How did the survivor count [4] turn out when `CNc1ncc2nc(C)c(=O)n(C)c2n1` was run?
A: 1 of 3
